Assay results published in patent US11701336B2, “Method of determining composition effective for treating diabetes” (priority 2015, dated 2023).

Test system: diabetic patients
Test: HbA1c (glycated hemoglobin) of the patient under the prescription
Assay type: in vivo, human
Details: Case (18), person; as of April 27 (2020); loss of appetite and weight loss
Procedure: For each prescription example, the glycemic status of the patient that is dependent on the administered active components and the component amount is measured using HbA1c (glycated hemoglobin) along with changes in the lactic acid value, and opinion of the doctor is recorded together with the change in the values.

CN(C)C(=N)NC(=N)N.Cl [metformin, metformin hydrochloride]
HbA1c: 5.3
